# Hit rate of the full screen: of about 320,000 compounds, about 22,000 (6.9%) were called active. The inconclusive results got no clear call from the source; some entries with a clear call stand among them for comparison. Calls follow the shape of the dose curve; as a rule, active = well fitted inhibition curve with a large enough effect; inconclusive = small, poorly fitted or top-dose-only effect, or another doubt; inactive = no such curve, though single readings can be large or run the other way. Potencies of inconclusive entries are doubtful fits and often do not repeat.
# Experiment: Primary qHTS for delayed death inhibitors of the malarial parasite plastid, 96 hour incubation
# Settings: P. falciparum luciferase reporter growth; series mostly up to 28.7 µM
# Summary of the method: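 96 h incubation, 37 C, 5% CO2, of luciferase-reporter P. falciparum-infected RBCs (2% hematocrit, 0.05% parasitemia final) with test compounds; endpoint luminescence.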
# Potency is read from the fitted curve at half-maximal effect.
row,SMILES,Potency
1,Cc1cc(C)cc(N2CC(C(=O)NC3CCCCC3)CC2=O)c1 (stereo unspecified),"inconclusive: 1.85 µM [inhibitor, partial curve]"
2,Nc1ccc(C(=O)NC2CCSc3ccccc32)cc1[N+](=O)[O-] (stereo unspecified),"inconclusive: 18.5 µM [inhibitor, single point]"
3,CCOC(=O)C1CCN(S(=O)(=O)c2nc3nc(C)cc(C)n3n2)CC1,active: 10.4 µM
4,COc1cc(OC)cc(-c2c(-c3ccc(F)cc3)c3cc(Br)ccc3n2C)c1,"inconclusive: 11.7 µM [inhibitor, partial curve, poor fit]"
5,Cc1cc(=O)[nH]c(SCC(=O)N2CCN(C(c3ccccc3)c3ccccc3)CC2)n1,inactive
6,Cc1cc(/C=C\c2nc(O)c([N+](=O)[O-])c(=O)[nH]2)c(C)n1-c1ccccc1,inactive
7,Cc1ccc(C(=O)N2CCc3ccccc32)cc1,inactive
8,CC1C2C(c3ccccc3)N(C)C(=O)N(C)C2N(C)C(=O)N1C (stereo unspecified),inactive
9,CC(=O)Nc1nc(-c2ccc3c(c2)CCN3C(=O)C2CC2)c(C)s1,inactive
10,Cc1cccc(OCC(=O)Nc2ccc(S(=O)(=O)N3CCN(C)CC3)cc2)c1,"inconclusive: 10.4 µM [inhibitor, single point]"
11,CCNC(=S)N/N=C/c1cccc(OCc2c(F)cccc2Cl)c1,"inconclusive: 11.7 µM [inhibitor, single point]"
12,CCn1cc(C(=O)Nc2ccc(OC)c(S(=O)(=O)N3CCCCC3)c2)c(=O)c2ccc(C)nc21,inactive
13,CCNCc1cc(Br)c(OCC(=O)Nc2ccccc2)c(OC)c1,"inconclusive: 11.7 µM [inhibitor, single point]"
14,N#CCSc1nc2ccc(N3CCOCC3)cc2c(=O)n1CCc1ccccc1,active: 13.1 µM
15,COc1cc(C2c3c(oc4ccccc4c3=O)C(=O)N2c2ccc(C)cn2)ccc1O (stereo unspecified),active: 14.7 µM
16,Nc1n[nH]c(C2CC2)c1N=Nc1ccc(Cl)cc1,inactive
17,C#CCOCCOCCOCCNc1nc(N2CCN(C(=O)[C@H]([C@@H](C)CC)n3cc(CCCCN)nn3)CC2)nc(N2CCN(C(=O)[C@H](C)n3cc(CCCN=C(N)N)nn3)CC2)n1,inactive
18,CCc1cc(=O)oc2cc(C)cc(OCC(=O)NCC(O)c3ccccc3)c12 (stereo unspecified),"inconclusive: 1.47 µM [inhibitor, full curve, poor fit]"
19,COc1ccc(CC(=O)N(c2ccccc2)c2nc(C)cs2)cc1,"inconclusive: 11.7 µM [inhibitor, single point]"
20,COc1nnc(-c2ccc(N3CCOCC3)c(NC(=O)C3CCCCC3)c2)c2ccccc12,"inconclusive: 13.1 µM [inhibitor, single point]"
21,CC(C)C(=O)N1CCN(c2c(Cl)cccc2[N+](=O)[O-])CC1,"inconclusive: 0.294 µM [inhibitor, full curve, poor fit]"
22,CC(C)(C)C(=O)NNC(=O)COc1ccc2ccccc2c1Br,active: 2.33 µM
23,COCC(=O)N(C)CC1CCCN(CCc2ccccc2OC)C1 (stereo unspecified),"inconclusive: 18.5 µM [inhibitor, single point]"

# Grouped by structure, the compounds so far with sulfur.
row,SMILES,Potency
2,Nc1ccc(C(=O)NC2CCSc3ccccc32)cc1[N+](=O)[O-] (stereo unspecified),"inconclusive: 18.5 µM [inhibitor, single point]"
3,CCOC(=O)C1CCN(S(=O)(=O)c2nc3nc(C)cc(C)n3n2)CC1,active: 10.4 µM
5,Cc1cc(=O)[nH]c(SCC(=O)N2CCN(C(c3ccccc3)c3ccccc3)CC2)n1,inactive
9,CC(=O)Nc1nc(-c2ccc3c(c2)CCN3C(=O)C2CC2)c(C)s1,inactive
10,Cc1cccc(OCC(=O)Nc2ccc(S(=O)(=O)N3CCN(C)CC3)cc2)c1,"inconclusive: 10.4 µM [inhibitor, single point]"
11,CCNC(=S)N/N=C/c1cccc(OCc2c(F)cccc2Cl)c1,"inconclusive: 11.7 µM [inhibitor, single point]"
12,CCn1cc(C(=O)Nc2ccc(OC)c(S(=O)(=O)N3CCCCC3)c2)c(=O)c2ccc(C)nc21,inactive
14,N#CCSc1nc2ccc(N3CCOCC3)cc2c(=O)n1CCc1ccccc1,active: 13.1 µM
19,COc1ccc(CC(=O)N(c2ccccc2)c2nc(C)cs2)cc1,"inconclusive: 11.7 µM [inhibitor, single point]"

# (listing goes on)

row,SMILES,Potency
1,O=c1cc(-c2ccco2)nc(-c2cccs2)o1,inactive
2,Cc1ccc(C2=NN(C(=O)CSc3nccn3C)C(c3ccco3)C2)cc1 (stereo unspecified),"inconclusive: 18.5 µM [inhibitor, single point]"
3,O=C(Nc1cccc(-c2nc3cccnc3s2)c1)c1ccco1,"inconclusive: 0.522 µM [inhibitor, full curve, poor fit]"
4,O=[N+]([O-])c1ccc(N2CCN(c3ccc([N+](=O)[O-])cc3CO)CC2)c(CO)c1,"inconclusive: 11.7 µM [inhibitor, partial curve]"
5,O=c1c2ccccc2ncn1-c1ccccc1[N+](=O)[O-],inactive
6,CC(C)Cc1ccccc1S(N)(=O)=O,inactive
7,CN(C)c1cc[n+](CC(=O)Nc2ccc(Cl)cc2)cc1,"inconclusive: 9.28 µM [inhibitor, single point]"
8,CCOc1ccc(CN2CCN(Cc3cnc(-c4ccccc4)s3)CC2CCO)cc1 (stereo unspecified),"inconclusive: 2.62 µM [inhibitor, single point]"
9,COC(=O)C1=C(c2ccc(C(C)=O)cc2)C[C@@H]2CC[C@H]1N2C(=O)NC(C)C,inactive
10,CC1(C)CC(=O)/C(=C(/O)Cc2ccccc2)C(=NCCc2ccccc2)C1,"inconclusive: 13.1 µM [inhibitor, partial curve, poor fit]"
11,CN(C)N1C(N)=C(C#N)C(c2ccc(Br)cc2)C2=C1CC(C)(C)CC2=O (stereo unspecified),inactive
12,COc1ccccc1CNC(=O)C1CC(c2cccc([N+](=O)[O-])c2)=NO1 (stereo unspecified),inactive
13,Nc1nc(Cl)cc(Nc2ccccc2Cl)n1,inactive
14,COC(=O)C1=C(c2ccc3ccccc3c2)C[C@@H]2CC[C@H]1N2C(=O)N1CCCC1,"inconclusive: 6.57 µM [inhibitor, partial curve]"
15,O=C(Nc1ccc(S(=O)(=O)Nc2nccs2)cc1)c1cccc(S(=O)(=O)N2CCOCC2)c1,active: 11.7 µM
16,COc1ccc(S(=O)(=O)N2CCCC(C(=O)NC3CCCC3)C2)cc1OC (stereo unspecified),"inconclusive: 13.1 µM [inhibitor, partial curve]"
17,Cc1cc(C)nc(NC(=O)CSc2nc3ccccc3s2)n1,inactive
18,CCOC(=O)N1CCC(NC(=O)Cn2ncc3c4ccccc4n(C)c3c2=O)CC1,inactive
19,O=C(COC(=O)/C=C/c1cccs1)Nc1nc(-c2ccccc2)cs1,"inconclusive: 0.0465 µM [inhibitor, full curve, poor fit]"
20,CCc1ccc(OCC(=O)NNC(=O)C2CCN(c3ncnc4sc(C)c(C)c34)CC2)cc1,"inconclusive: 18.5 µM [inhibitor, single point]"
21,COc1cc(C2C(C#N)=C(N)N(c3cccnc3)C3=C2C(=O)CC(C)(C)C3)ccc1O (stereo unspecified),"inconclusive: 6.57 µM [inhibitor, partial curve, poor fit]"
22,CC1=CC(C)(C)NC(=S)N1C(C)c1ccccc1 (stereo unspecified),inactive
23,COc1ccc(/C=C/C(=O)NCC(c2ccc(F)cc2)N2CCOCC2)cc1OC (stereo unspecified),"inconclusive: 13.1 µM [inhibitor, partial curve, poor fit]"
